Data reported in article PMC4077438 (Beilstein Journal of Organic Chemistry, 2014).

Experiment: general procedure: solution-phase peptide synthesis; N-oxysuccinimidyl esters (BocGlyONSu or BocGly2ONSu), activated esters method
Conditions: for conjugation yield: conjugation step, hydrochlorides or trifluoroacetates; for step yield: late stage modification step, HCl

Substance | conjugation yield [%] | step yield [%]
3’SL-sp3-Gly5-NH(CH2CH2O)3CH2CH2NH-Gly5-sp3-3’SL | 57 | 
3’SL-sp3-Gly6-NH(CH2CH2O)3CH2CH2NH-Gly6-sp3-3’SL | 51 | 
6’SLN-sp2-Gly5-NH(CH2CH2O)3CH2CH2NH-Gly5-sp2-6’SLN | 69 | 
6’SLN-sp2-Gly6-NH(CH2CH2O)3CH2CH2NH-Gly6-sp2-6’SLN | 43 | 
HCl*Gly4-NH(CH2CH2O)3CH2CH2NH-Gly4*HCl |  | 95
HCl*Gly4-NH(СH2)2NH-Gly4*HCl |  | 91
HCl*Gly5-NH(CH2CH2O)3CH2CH2NH-Gly5*HCl |  | 92
HCl*Gly5-NH(СH2)2NH-Gly5*HCl |  | 46
HCl*Gly6-NH(CH2CH2O)3CH2CH2NH-Gly6*HCl |  | 91
HCl*Gly6-NH(СH2)2NH-Gly6*HCl |  | 68
HCl*Gly7-NH(CH2CH2O)3CH2CH2NH-Gly7*HCl |  | 88
Neu5Ac-sp1-Gly4-NH(CH2)10NH-Gly4-sp1-Neu5Ac | 74 | 
Neu5Ac-sp1-Gly5-NH(CH2)2NH-Gly5-sp1-Neu5Ac | 68 | 
Neu5Ac-sp1-Gly5-NH(CH2)10NH-Gly5-sp1-Neu5Ac | 53 | 
Neu5Ac-sp1-Gly6-NH(CH2)2NH-Gly6-sp1-Neu5Ac | 92 | 
